# Laboratory results from patent publication US20190002562A1 (INTERVET, published 2019).
# These are yes or no findings as the source states them, for the method shown.
# B1: can 2H9 IgGB ADCC (1068) VH4/VL3 (antibody)
# heavy: EVQLVQSGGDLVKPGGSVRLSCVASGFNIKNTYMHWVRQAPGKGLQWIGRIAPANVDTKYAPKFQGKATISADTAKNTAYMQLNSLRAEDTAVYYCVLIYYDYDGDIDVWGQGTLVTVSSASTTAPSVFPLAPSCGSTSGSTVALACLVSGYFPEPVTVSWNSGSLTSGVHTFPSVLQSSGLYSLSSMVTVPSSRWPSETFTCNVAHPASKTKVDKPVPKRENGRVPRPPDCPKCPAPEMLGGASVFIFPPKPKDTLLIARTPEVTCVVVALDPEDPEVQISWFVDGKQMQTAKTQPREEQFAGTYRVVSVLPIGHQDWLKGKQFTCKVNNKGLASPIERTISKARGQAHQPSVYVLPPSREELSKNTVSLTCLIKDFFPPDIDVEWQSNGQQEPESKYRTTPPQLDEDGSYFLYSKLSVDKSRWQRGDTFICAVMHEALHNHYTQESLSHSPGK
# light: DIVMTQTPLSLSVSLGEPASISCHASQNINVWLSWYRQKPGQIPQLLIYKASHLHTGVPDRFSGSGSGTDFTLRISRVEADDAGVYYCQQGQSWPLTFGQGTKVEIKRNDAQPAVYLFQPSPDQLHTGSASVVCLLNSFYPKDINVKWKVDGVIQDTGIQESVTEQDSKDSTYSLSSTLTMSSTEYLSHELYSCEITHKSLPSTLIKSFQRSECQRVD
# notes: also called can2H9 VH4 IgGB ADCC (1068)/VL3; YZZ1068
# Target: C1q protein
# Test: condition: 2-fold dilutions of antibody starting at 1 µg/mL; C1q at 4 µg/mL; ELISA: antibody captured on PD-1 HIS, C1q added
binder,measurement,value
B1,binding,no binding
